Source: publication PMC9564178 (Cells, 2022)
Results are given in words; binding and its absence hold for the method and conditions named. Binding calls can cover weak binding; strength is not graded here. Sequences can lack the tags named with a protein.

Molecular target: T1, human recombinant TPPP3 (hexaHis fusion) (human) (UniProt Q9BW30)
T1 sequence: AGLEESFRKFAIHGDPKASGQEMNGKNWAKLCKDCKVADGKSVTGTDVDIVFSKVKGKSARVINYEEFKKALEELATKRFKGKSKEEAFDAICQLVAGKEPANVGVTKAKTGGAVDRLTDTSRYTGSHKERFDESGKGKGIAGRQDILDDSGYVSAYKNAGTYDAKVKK
Assay: ELISA; TPPP3 or TPPP1 immobilised on the plate (5 μg/mL, PBS), tubulin added at various concentrations, bound tubulin detected by a specific antibody; both purified

Substance: Tubulin (bovine) (complex)
- binding: binds
